This note sets out measurements from patent US7785829 (Biogen, dated 2010).

Chains of the proteins cited; added tags and fusions are not shown. Lines headed by an entry give the natural chain unless they say otherwise; changes in a name come on top. Residues count along the entry.
UniProt Q96FE5: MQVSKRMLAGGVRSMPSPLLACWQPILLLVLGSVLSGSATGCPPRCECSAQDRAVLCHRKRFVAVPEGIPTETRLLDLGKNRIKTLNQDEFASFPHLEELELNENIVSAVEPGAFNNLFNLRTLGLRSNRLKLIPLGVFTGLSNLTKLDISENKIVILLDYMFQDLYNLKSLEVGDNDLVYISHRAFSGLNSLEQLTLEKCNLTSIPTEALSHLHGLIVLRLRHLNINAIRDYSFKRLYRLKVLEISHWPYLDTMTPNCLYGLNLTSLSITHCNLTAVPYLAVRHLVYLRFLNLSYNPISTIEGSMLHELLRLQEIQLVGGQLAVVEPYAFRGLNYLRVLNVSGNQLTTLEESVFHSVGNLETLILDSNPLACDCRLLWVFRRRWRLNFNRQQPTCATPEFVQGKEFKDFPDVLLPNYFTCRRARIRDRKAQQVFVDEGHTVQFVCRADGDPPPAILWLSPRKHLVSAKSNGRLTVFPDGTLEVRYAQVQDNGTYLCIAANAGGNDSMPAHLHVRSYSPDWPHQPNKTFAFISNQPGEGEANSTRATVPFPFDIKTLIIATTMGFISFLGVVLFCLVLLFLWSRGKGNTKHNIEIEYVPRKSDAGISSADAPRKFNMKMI
UniProt P07174, residues 30-425: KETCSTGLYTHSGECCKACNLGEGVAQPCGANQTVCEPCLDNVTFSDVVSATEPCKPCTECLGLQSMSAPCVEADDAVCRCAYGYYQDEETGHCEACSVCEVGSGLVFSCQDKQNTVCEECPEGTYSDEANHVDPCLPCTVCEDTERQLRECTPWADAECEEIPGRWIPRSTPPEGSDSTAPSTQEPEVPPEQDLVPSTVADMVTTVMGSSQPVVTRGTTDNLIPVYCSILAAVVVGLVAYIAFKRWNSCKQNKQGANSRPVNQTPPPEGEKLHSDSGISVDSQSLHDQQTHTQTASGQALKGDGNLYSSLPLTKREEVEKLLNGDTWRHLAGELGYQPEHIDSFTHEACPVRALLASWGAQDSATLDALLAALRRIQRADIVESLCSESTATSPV

No constants are given. Whether binding was seen depends on the method and setting. For some of these results: In cells and extracts the contact can be indirect. Some entries that bind do so weakly or less than the wild type.

Experiment [1] has as its target Sp35-Fc fusion protein (extra-cellular portion of human Sp35, residues 1-531, fused to the hinge and Fc region of human IgG1) (human) (UniProt Q96FE5). Kind of experiment: immunoprecipitation from HA-Sp35-transfected cells treated with Sp35-Fc.
Experiment [2] deals with T1, human NgR1 receptor expressed on COS7 cells (human) (UniProt Q9BZR6).
T1 sequence (looked up): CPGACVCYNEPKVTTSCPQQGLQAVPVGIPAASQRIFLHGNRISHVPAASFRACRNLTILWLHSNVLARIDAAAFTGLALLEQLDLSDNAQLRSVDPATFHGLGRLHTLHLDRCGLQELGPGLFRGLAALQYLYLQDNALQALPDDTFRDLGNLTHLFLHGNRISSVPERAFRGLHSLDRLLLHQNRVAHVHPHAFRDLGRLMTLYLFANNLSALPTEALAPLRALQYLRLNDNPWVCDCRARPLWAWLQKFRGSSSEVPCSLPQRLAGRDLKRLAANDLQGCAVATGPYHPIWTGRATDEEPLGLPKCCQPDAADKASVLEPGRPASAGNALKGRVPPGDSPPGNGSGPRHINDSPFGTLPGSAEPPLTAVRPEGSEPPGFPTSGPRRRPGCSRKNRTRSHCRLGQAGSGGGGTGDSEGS
Kind of experiment: co-immunoprecipitation from COS7 cells co-expressing SP35, NgR1 and p75.

Experiment [3] deals with T1, human NgR1 receptor expressed on COS7 cells (human). Kind of experiment: AP fusion binding to COS7 cells transfected with NgR1; NgR1 and p75; NgR1, p75 and SP35 (FIG. 5).

“Sp35-hemagglutinin (Sp35 signal sequence and extracellular domain, amino acids 1-531, with HA tag) (from UniProt Q96FE5 40-537)”: the binding entry in experiment [1] is “binds”.

Regarding “SP35 expressed in transfected cells (COS7, HEK293) (from UniProt Q96FE5 40-620) (receptor)”, the binding result in experiment [2] is “binds”.

For the molecule “rat p75 expressed on COS7 cells (from UniProt P07174 30-425) (receptor)”, the binding entry in experiment [2] is recorded as “binds”.

B1: AP-Omgp (ligand, UniProt P23515 25-417, looked up, not shown: large carriers)
chain: ICPLQCICTERHRHVDCSGRNLSTLPSGLQENIIHLNLSYNHFTDLHNQLTQYTNLRTLDISNNRLESLPAHLPRSLWNMSAANNNIKLLDKSDTAYQWNLKYLDVSKNMLEKVVLIKNTLRSLEVLNLSSNKLWTVPTNMPSKLHIVDLSNNSLTQILPGTLINLTNLTHLYLHNNKFTFIPDQSFDQLFQLQEITLYNNRWSCDHKQNITYLLKWMMETKAHVIGTPCSTQISSLKEHNMYPTPSGFTSSLFTVSGMQTVDTINSLSVVTQPKVTKIPKQYRTKETTFGATLSKDTTFTSTDKAFVPYPEDTSTETINSHEAAAATLTIHLQDGMVTNTSLTSSTKSSPTPMTLSITSGMPNNFSEMPQQSTTLNLWREETTTNVKTPLPS
As for B1, the binding entry in experiment [3] is “binds”.
